These results are taken from the supplement of paper PMC7024190.

This is one part of the list. This data set is noisy: repeats of one test often differ as much as different tests do.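 A first-round screen of about ten thousand compounds sought those raising reporter output, using human embryonic kidney cells briefly transfected with a plasmid carrying a Renilla luciferase gene driven by the HSV-TK promoter.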

The test system of this assay is HEK 293FT. Put plainly: log relative Renilla luciferase luminescence (reporter expression vs reference, reference not stated) (log (base not stated)); higher = higher recombinant reporter expression. The note with it: 10 µM; time after transfection 48 h. The method, then: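 HEK 293FT cells transiently transfected with pRL-TK (Renilla luciferase) were treated with compounds at 10 uM and luminescence was read about 42 h later. Values are log relative Renilla luminescence (log base and reference not stated). Single-pass screen; 2080 natural products library.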
With `CC(C)(O[C@@H]1O[C@H](CO)[C@@H](O)[C@H](O)[C@H]1O)[C@H]1Oc2cc3oc(=O)ccc3cc2[C@H]1O` [Smyrindioloside], the log is 0.316. With `O=C1c2cc(O)cc(O)c2C(=O)c2c(O)cc(CO)cc21` [Citreorosein], the log is 0.112. The same measure for `COc1ccc(-c2cc(=O)c3c(O)c(OC)c(O)cc3o2)cc1O` [Desmethoxycentaureidin]: -0.0669. As to `COc1c(OC(C)=O)cc(O)c2c(=O)cc(-c3ccccc3)oc12` [5-Hydroxy-7-acetoxy-8-methoxyflavone], the log was 0.062. As for `COc1ccc(C[C@H]2COC(=O)[C@@H]2Cc2ccc(OC)c(OC)c2)cc1OC` [2,3-Bis(3,4-dimethoxybenzyl)butyrolactone], the log is -0.217.

As to `CC(=O)OC[C@H](O)[C@]1(C)C=C2CC[C@@H]3C(C)(C)[C@H](O[C@@H]4O[C@H](CO)[C@@H](O)[C@H](O)[C@H]4O)CC[C@@]3(C)[C@@H]2CC1` [Hythiemoside A], the log is -0.203. The same measure for `CC(=O)O[C@H]1C(=O)[C@@]2(CO)[C@H]([C@H](OC(=O)c3ccccc3)[C@]3(O)C[C@H](O)C(C)=C1C3(C)C)[C@]1(OC(C)=O)CO[C@@H]1C[C@@H]2O` [19-Hydroxybaccatin III]: -0.0147.

Turning to `CCCCCCCCCCCCCCCCCCCCCCC(O)C(=O)OCC` (stereo unspecified) [2-Hydroxytetracosanoic acid ethyl ester], the log was -0.0654. Regarding `COC(=O)CCC(C)=O` [Methyl levulinate], the log was found to be 0.0279. The same measure for `COc1cc(OC)c2ccc(=O)oc2c1C[C@H]1OC1(C)C` [Sibiricin]: -0.186; for `COc1cc([C@H]2c3cc(O)c(OC)cc3C[C@H]3[C@@H](OC)OC[C@H]23)ccc1O` [Formosanol]: -0.443; for `O=C1c2c(O)cc(O)cc2O[C@H](c2c(O)cccc2O)[C@H]1O` [2',3,5,6',7-Pentahydroxyflavanone]: -0.193. As for `COc1c(OC)c2nccc3c4ccccc4n(c1=O)c23` [4,5-Dimethoxycanthin-6-one], the log was determined as 0.134.

Regarding `CC1C(O)CC2C(CO)C(=O)OCC12` (stereo unspecified) [Alyxialactone], the log came to 0.0528. The figure for `Cc1coc2c1C(=O)C(=O)c1c-2ccc2c1CCCC2(C)C` [Tanshinone II] is 0.121; for `COc1cc(O)c2c(c1)O[C@H](c1ccc(O)cc1)CC2=O` [Sakuranetin] it is 0.142. For the molecule `CC(C)(O)[C@@H]1CC[C@]2(C)CCC[C@](C)(O)[C@H]2C1` [Pterodondiol], the log amounted to 0.08. Take `C[C@@H]1O[C@@H](Oc2c(-c3ccc(O)cc3)oc3cc(O)cc(O)c3c2=O)[C@H](O)[C@H](O)[C@H]1O` [Afzelin]: the log came to 0.0322.

Take `CC1(C)[C@H](O)CC[C@]2(C)[C@H]3CC[C@@H]4[C@@H]([C@]5(C)CCC(=O)O5)CC[C@@]4(C)[C@]3(C)CC[C@@H]12` [Cabraleahydroxylactone]: the log is -0.157.

For `COC(=O)c1ncc(OC)c2c1[nH]c1ccccc12` [4-Methoxy-1-methoxycarbonyl-beta-carboline], the log came to 0.0924. Consider `OCCCc1ccc(O)cc1` [3-(4-Hydroxyphenyl)-1-propanol], for which the log is -0.023. For `C=C1C(=O)O[C@@H]2[C@H]3C(C)=CC[C@@H](O)[C@]3(C)CC[C@@H]12` [Santamarine], the log was determined as 0.104. On to `COc1cc([C@H]2Oc3c(OC)cc4ccc(=O)oc4c3O[C@@H]2CO)ccc1O` [Cleomiscosin A], for which the log was -0.0445. Take `C=C1C(=O)[C@]23C[C@H]1CC[C@H]2[C@@]12CO[C@]3(O)[C@@H](O)[C@@H]1C(C)(C)C=CC2=O` [Eriocalyxin B]: the log was -1.68. On to `COc1cc([C@H]2c3cc(O)c(OC)cc3C=C(C=O)[C@@H]2CO)ccc1O` [7,8,9,9-Tetradehydroisolariciresinol], for which the log came out at 0.0528. In the case of `C/C(=C/CC[C@@H](C)[C@H]1CC[C@@]2(C)C3=C(CC[C@]12C)[C@@]1(C)CCC(=O)C(C)(C)[C@@H]1CC3=O)C(=O)O` [Ganoderic acid DM], the log was 0.228. For `C=C1CC23CCC1CC2C12CCCC4(C)C5OCCN5C1OC3C(OC(C)=O)C42` (stereo unspecified) [Spiradine F], the log was 0.0607. Take `CC1=CC[C@@H](OC(=O)c2ccccc2)[C@H]2[C@@]1(C)[C@@H](OC(=O)c1cccnc1)[C@H](OC(=O)c1ccccc1)[C@]1(C)O[C@]3(CC[C@]21C)COC(=O)C3` [Scutebata G]: the log came out at 0.0607. Turning to `Cc1cc(OC(=O)c2c(C)cc(O)cc2O)cc(O)c1C(=O)O` [Lecanoric acid], the log is 0.0487. For `C=Cc1ncc(OC)c2c1[nH]c1ccccc12` [Dehydrocrenatine], the log was found to be 0.335. In the case of `CC(=O)CC/C=C(\C)CC/C=C(\C)CC/C=C(\C)CC/C=C(\C)CC/C=C(\C)CC/C=C(\C)CC/C=C(\C)CCC=C(C)C` [Bombiprenone], the log is -0.138.
